From PubChem BioAssay AID1918931 (Molecular Pharmacology Branch, DTP, NCI, 2023)
“And” between values parts separate entries of the source, which are not always exact repeats. Identical values can stand only once. This continues a long series; more values of the same kind are listed elsewhere.

Tested on: 138582-337-R-J1-PDC complex spheroid viability
Experiment: Anticancer human tumor 138582-337-R-J1-PDC patient-derived Merkel cell tumor cell line growth inhibition
Details: compound 10 µM; hits give low values
From the text: Multicellular complex tumor spheroid response to LSD1 Inhibitor Iadademstat in combination with a variety of drugs and investigational agents in selected tumor cell lines
The current study was undertaken to assess response to LSD1 inhibitors in combination with standard-of-care drugs and investigational agents in solid tumor complex spheroid models as well as in the K-562 leukemia. Complex spheroids include a stromal component modeled by human endothelial cells (HUVEC) and fibroblasts modeled by human mesenchymal stem cells (MSCs). The concentration ranges selected for each drug and investigational agent were based upon clinically achievable concentrations if the clinical Cmax of the agent was known.
Compounds. The drugs and investigational agents used in this study are listed on Table 1. All of the agents used, including staurosporine (NSC755774) and gemcitabine (NSC613327), were obtained from the Developmental Therapeutics Program, NCI. FDA-approved anticancer drugs are available from the NCI at http://dtp.nci.nih.gov/branches/dscb/oncology_drugset_explanation.html. Drugs and investigational agents were >95% pure by proton nuclear magnetic resonance (NMR) and liquid chromatography/mass spectrometry (LC/MS). […] If the clinical Cmax for an agent had not been determined, the highest concentration tested was 10 microM. […]
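Note: spheroids exposed to agents for 7 days; 100% = DMSO vehicle control viability.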

For `NC1CCC(NC2CC2c2ccccc2)CC1` (stereo unspecified), the viability, T/C was 89.8% and 75.6%.
